Source: patent US20160017049A1
No constants are given. Whether binding was seen depends on the method and setting. Some binding calls cover weakened binding; strength is not graded here. Blank lines part the entries; values can stand above or below the binder they belong to.

Chains of the proteins cited; added tags and fusions are not shown. Lines headed by an entry give the natural chain unless they say otherwise; changes in a name come on top.
UniProt P13265: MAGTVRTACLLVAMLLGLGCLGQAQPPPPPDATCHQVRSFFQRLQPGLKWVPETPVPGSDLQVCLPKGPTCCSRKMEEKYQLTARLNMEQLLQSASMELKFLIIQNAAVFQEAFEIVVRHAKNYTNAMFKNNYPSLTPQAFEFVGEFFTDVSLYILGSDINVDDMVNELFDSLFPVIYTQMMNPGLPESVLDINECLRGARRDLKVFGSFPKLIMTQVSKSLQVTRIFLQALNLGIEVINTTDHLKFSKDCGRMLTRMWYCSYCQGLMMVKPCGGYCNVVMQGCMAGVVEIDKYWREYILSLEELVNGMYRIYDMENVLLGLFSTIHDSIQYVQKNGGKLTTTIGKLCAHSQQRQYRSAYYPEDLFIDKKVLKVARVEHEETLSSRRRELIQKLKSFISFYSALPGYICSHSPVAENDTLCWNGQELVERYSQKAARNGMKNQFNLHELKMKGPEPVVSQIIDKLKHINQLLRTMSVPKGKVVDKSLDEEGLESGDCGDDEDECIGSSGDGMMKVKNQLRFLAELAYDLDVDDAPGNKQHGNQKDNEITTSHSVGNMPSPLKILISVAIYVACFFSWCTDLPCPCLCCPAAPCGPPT
UniProt P51654: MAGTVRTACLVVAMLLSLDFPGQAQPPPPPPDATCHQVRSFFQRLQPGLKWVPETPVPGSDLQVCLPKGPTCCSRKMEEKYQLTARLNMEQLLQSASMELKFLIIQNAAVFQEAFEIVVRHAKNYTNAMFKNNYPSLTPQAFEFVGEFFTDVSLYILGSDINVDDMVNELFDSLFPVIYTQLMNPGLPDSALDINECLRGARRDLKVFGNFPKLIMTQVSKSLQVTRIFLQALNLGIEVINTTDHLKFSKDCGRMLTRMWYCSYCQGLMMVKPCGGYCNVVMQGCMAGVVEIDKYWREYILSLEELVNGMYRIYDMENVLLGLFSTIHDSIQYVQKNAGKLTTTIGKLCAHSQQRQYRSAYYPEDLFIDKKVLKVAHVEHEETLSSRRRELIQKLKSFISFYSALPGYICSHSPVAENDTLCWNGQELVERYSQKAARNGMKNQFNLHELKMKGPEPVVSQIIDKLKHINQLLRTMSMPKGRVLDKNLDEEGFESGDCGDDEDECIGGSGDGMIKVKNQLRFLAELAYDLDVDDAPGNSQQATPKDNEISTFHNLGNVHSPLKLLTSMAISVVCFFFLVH
UniProt Q8CFZ4: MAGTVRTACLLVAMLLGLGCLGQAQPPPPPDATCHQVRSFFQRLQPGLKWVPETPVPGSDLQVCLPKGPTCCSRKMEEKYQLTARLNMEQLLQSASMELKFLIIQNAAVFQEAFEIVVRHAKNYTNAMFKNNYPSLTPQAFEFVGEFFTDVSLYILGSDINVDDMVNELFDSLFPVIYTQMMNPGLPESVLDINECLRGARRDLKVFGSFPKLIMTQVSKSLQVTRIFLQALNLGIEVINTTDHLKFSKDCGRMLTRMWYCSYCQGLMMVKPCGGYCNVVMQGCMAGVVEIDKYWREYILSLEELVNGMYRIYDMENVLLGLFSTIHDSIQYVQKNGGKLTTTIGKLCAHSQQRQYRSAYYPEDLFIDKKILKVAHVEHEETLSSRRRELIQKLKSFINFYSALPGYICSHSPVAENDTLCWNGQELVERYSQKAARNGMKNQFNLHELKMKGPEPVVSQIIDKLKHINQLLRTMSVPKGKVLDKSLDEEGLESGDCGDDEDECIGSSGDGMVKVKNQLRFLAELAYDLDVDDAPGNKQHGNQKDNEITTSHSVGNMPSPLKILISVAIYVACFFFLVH

What was measured:
[1] = molecular target: full-length N-terminal gD-tagged cynomolgus monkey GPC3 expressed on the surface of 293 cells (cynomolgus monkey); assay: FACS on 293 cells expressing gD-tagged cynomolgus GPC3
[2] = molecular target: full-length N-terminal gD-tagged rat GPC3 expressed on the surface of 293 cells (rat) (UniProt P13265); assay: FACS on 293 cells expressing gD-tagged rat GPC3
[3] = molecular target: full-length N-terminal gD-tagged rat GPC3 expressed on the surface of 293 cells (rat) (UniProt P13265); assay: FACS on 293 cells expressing gD-tagged full-length GPC3
[4] = molecular target: full-length N-terminal gD-tagged cynomolgus monkey GPC3 expressed on the surface of 293 cells (cynomolgus monkey); assay: as above
[5] = molecular target: huGPC(aa359-420) (HSV; human); assay: FACS on 293 cells expressing the gD-tagged fragment
[6] = molecular target: huGPC(aa359-420) (HSV; human); assay: FACS on 293 cells expressing the construct
[7] = molecular target: human GPC3, full length, on the surface of cells (human) (UniProt P51654); assay: FACS (FIG. 13A-B)
[8] = molecular target: human GPC3, full length, on the surface of cells (human) (UniProt P51654); assay: FACS on JHH7 cells and xenograft tumor cells
[9] = molecular target: human GPC3, full length, on the surface of cells (human) (UniProt P51654); assay: IHC on tissue microarray and GPC3-expressing cells
[10] = molecular target: human GPC3, full length, on the surface of cells (human) (UniProt P51654); assay: FACS on HepG2 X1 cells (endogenous GPC3)
[11] = molecular target: cynomolgus monkey GPC3 (Western blot) (cynomolgus monkey); assay: Western blot (told again, 'as discussed above')
[12] = molecular target: mouse GPC3 (Western blot) (mouse) (UniProt Q8CFZ4); assay: Western blot (told again, 'as discussed above')
[13] = molecular target: rat GPC3 (Western blot) (rat) (UniProt P13265); assay: Western blot (told again, 'as discussed above')
[14] = molecular target: human GPC3 (Western blot) (human) (UniProt P51654); assay: Western blot (told again, 'as discussed above')
[15] = molecular target: human GPC3, full length, on the surface of cells (human) (UniProt P51654); assay: FACS on cells isolated from a HepG2 X1 xenograft tumor (endogenous GPC3)
[16] = molecular target: human GPC3, full length, on the surface of cells (human) (UniProt P51654); assay: FACS, 7H1 on HepG2 X1 cells (endogenous GPC3) and on 293S cells expressing full-length GPC3
[17] = molecular target: human GPC3, full length, on the surface of cells (human) (UniProt P51654); assay: FACS on JHH7 cells (endogenous GPC3)
[18] = molecular target: human GPC3, full length, on the surface of cells (human) (UniProt P51654); assay: FACS on HepG2 X1 and 293S-GPC3 cells
[19] = molecular target: human GPC3, full length, on the surface of cells (human) (UniProt P51654); assay: FACS (FIG. 15A-B)
[20] = molecular target: human GPC3, full length, on the surface of cells (human) (UniProt P51654); assay: FACS on HepG2 X1 cells and xenograft tumor cells
[21] = molecular target: human GPC3, full length, on the surface of cells (human) (UniProt P51654); assay: FACS on cells isolated from a JHH7 xenograft tumor (endogenous GPC3)
[22] = molecular target: cynomolgus monkey GPC3 (Western blot) (cynomolgus monkey); assay: Western blot
[23] = molecular target: mouse GPC3 (Western blot) (mouse) (UniProt Q8CFZ4); assay: Western blot
[24] = molecular target: rat GPC3 (Western blot) (rat) (UniProt P13265); assay: Western blot
[25] = molecular target: human GPC3 (Western blot) (human) (UniProt P51654); assay: Western blot

- binding [1]: binds
- binding [2]: binds
- binding [3]: binds
- binding [4]: binds
- binding [5]: no binding
- binding [6]: no binding
B1: antibody 15G1 (antibody, human IgG1, kappa, V domains shown)
VH: EVQLLETGGGLVQPGGSRGLSCEGSGFTFSGFWMSWVRQTPGKTLEWIGDINSDGSSINYAPSIKDRFTIFRDNDKSILYLQMTNVRSEDTGTYFCVTTYGDYWGQGTTLTVSS
VL: DIVMTQSQKFMSTSVGDRVSVTCKASQNVGSHVGWYQQKSGQSPKALIYSASNRYIGVPDRFTGSGSGTDFTLTISNVQSEDLAEYFCQQYHIYPYTFGGGTRLEIKR

- binding [7]: binds
- binding [8]: binds
- binding [9]: binds
- binding [10]: binds
- binding [11]: binds
- binding [12]: binds
- binding [13]: binds
- binding [14]: binds
- binding [15]: binds
- binding [16]: binds
- binding [17]: binds
- binding [18]: binds
- binding [19]: binds
- binding [20]: binds
- binding [21]: binds
- binding [22]: binds
- binding [23]: binds
- binding [24]: binds
- binding [25]: binds
B2: antibody 7H1 (antibody, V domains shown)
VH: QVQLQQSGPELVKPGASVKISCKASGYTFTDYYINWVKQKPGQGLEWIGWIYPGSGHTECNETFKGKATLTVDTSSSTAYMQLSSLTSEDTAVYFCTRGYYAPMGYFDYWGQGTTLTVSS
VL: DIQMTQSPSSLSASLGERVSLTCRASQEISGYLSWLQQKPDGTIKRLIYAASTLDSGVPKRFSGSRSGSDYSLTISGLESEDFADYYCLQYASYPYTFGGGTKLEIK
